Test results taken from paper PMC6726650.
Results are given in words; binding and its absence hold for the method and conditions named. In cells and extracts the contact can be indirect.

Target: insulin-like growth factor 2 mRNA-binding protein 2 (IGF2BP2) (human (endogenous in A673)), Q9Y6M1
Assay: co-IP; endogenous IGF2BP2 immunoprecipitated from 1 mg A673 total protein extract overnight with anti-IGF2BP2 antibody and anti-mouse IgG Dynabeads in RIP buffer (150 mM KCl, 25 mM Hepes pH 7.9, 5 mM EDTA, 0.5 mM DTT, 0.5% NP40); washed three times; western blot of retrieved proteins
Conditions: remark: other sources report otherwise

B1: LIN28B protein, Q6ZN17 1-250 (protein)
chain: MAEGGASKGGGEEPGKLPEPAEEESQVLRGTGHCKWFNVRMGFGFISMINREGSPLDIPVDVFVHQSKLFMEGFRSLKEGEPVEFTFKKSSKGLESIRVTGPGGSPCLGSERRPKGKTLQKRKPKGDRCYNCGGLDHHAKECSLPPQPKKCHYCQSIMHMVANCPHKNVAQPPASSQGRQEAESQPCTSTLPREVGGGHGCTSPPFPQEARAEISERSGRSPQEASSTKSSIAPEEQSKKGPSVQKRKKT
  binding: no binding
